# Measured values: PMC5864089
# No constants are given. Whether binding was seen depends on the method and setting. Binding seen in cells or lysates may run through a third protein. Some entries that bind do so weakly or less than the wild type.
# B1: Argonaute2 (protein, UniProt Q9VUQ5 1-1214)
# chain: MGKKDKNKKGGQDSAAAPQPQQQQKQQQQRQQQPQQLQQPQQLQQPQQLQQPQQQQQQQPHQQQQQSSRQQPSTSSGGSRASGFQQGGQQQKSQDAEGWTAQKKQGKQQVQGWTKQGQQGGHQQGRQGQDGGYQQRPPGQQQGGHQQGRQGQEGGYQQRPPGQQQGGHQQGRQGQEGGYQQRPSGQQQGGHQQGRQGQEGGYQQRPPGQQQGGHQQGRQGQEGGYQQRPSGQQQGGHQQGRQGQEGGYQQRPPGQQQGGHQQGRQGQEGGYQQRPPGQQQGGHEQGRQGQEGGYQQRPSGQQQGGHQQGRQGQEGGYQQRPSGQQQGGHQQGRQGQEGGYQQRPSGQQQGGHQQGRQGQEGGYQQRPPGQQPNQTQSQGQYQSRGPPQQQQAAPLPLPPQPAGSIKRGTIGKPGQVGINYLDLDLSKMPSVAYHYDVKIMPERPKKFYRQAFEQFRVDQLGGAVLAYDGKASCYSVDKLPLNSQNPEVTVTDRNGRTLRYTIEIKETGDSTIDLKSLTTYMNDRIFDKPMRAMQCVEVVLASPCHNKAIRVGRSFFKMSDPNNRHELDDGYEALVGLYQAFMLGDRPFLNVDISHKSFPISMPMIEYLERFSLKAKINNTTNLDYSRRFLEPFLRGINVVYTPPQSFQSAPRVYRVNGLSRAPASSETFEHDGKKVTIASYFHSRNYPLKFPQLHCLNVGSSIKSILLPIELCSIEEGQALNRKDGATQVANMIKYAATSTNVRKRKIMNLLQYFQHNLDPTISRFGIRIANDFIVVSTRVLSPPQVEYHSKRFTMVKNGSWRMDGMKFLEPKPKAHKCAVLYCDPRSGRKMNYTQLNDFGNLIISQGKAVNISLDSDVTYRPFTDDERSLDTIFADLKRSQHDLAIVIIPQFRISYDTIKQKAELQHGILTQCIKQFTVERKCNNQTIGNILLKINSKLNGINHKIKDDPRLPMMKNTMYIGADVTHPSPDQREIPSVVGVAASHDPYGASYNMQYRLQRGALEEIEDMFSITLEHLRVYKEYRNAYPDHIIYYRDGVSDGQFPKIKNEELRCIKQACDKVGCKPKICCVIVVKRHHTRFFPSGDVTTSNKFNNVDPGTVVDRTIVHPNEMQFFMVSHQAIQGTAKPTRYNVIENTGNLDIDLLQQLTYNLCHMFPRCNRSVSYPAPAYLAHLVAARGRVYLTGTNRFLDLKKEYAKRTIVPEFMKKNPMYFV
# Target: T1, LaminB (Drosophila (endogenous in OR embryos and Kc167 cells)) (UniProt P08928)
# T1 sequence: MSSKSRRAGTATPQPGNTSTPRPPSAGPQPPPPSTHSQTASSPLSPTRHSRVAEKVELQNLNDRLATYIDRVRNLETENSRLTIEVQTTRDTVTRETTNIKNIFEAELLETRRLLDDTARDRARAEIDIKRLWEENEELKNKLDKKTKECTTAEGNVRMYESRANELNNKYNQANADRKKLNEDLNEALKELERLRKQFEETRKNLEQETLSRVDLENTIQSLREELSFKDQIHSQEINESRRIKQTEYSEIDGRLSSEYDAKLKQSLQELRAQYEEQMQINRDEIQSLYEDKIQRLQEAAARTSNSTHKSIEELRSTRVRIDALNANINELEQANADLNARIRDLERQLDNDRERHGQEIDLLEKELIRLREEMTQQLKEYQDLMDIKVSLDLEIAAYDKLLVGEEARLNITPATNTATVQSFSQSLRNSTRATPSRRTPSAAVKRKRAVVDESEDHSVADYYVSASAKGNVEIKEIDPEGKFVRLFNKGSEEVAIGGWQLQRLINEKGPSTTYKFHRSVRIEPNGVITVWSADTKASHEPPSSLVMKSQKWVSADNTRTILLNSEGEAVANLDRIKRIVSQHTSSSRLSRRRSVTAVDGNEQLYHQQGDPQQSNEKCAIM
# Test: co-IP; Kc nuclear extracts (sonicated) in IP buffer (50 mM Tris-HCl pH 7.4, 150 mM NaCl, 0.3 mM MgCl2, 0.3% Triton X-100); monoclonal anti-LaminB ADL67.10 1 h at 4°C, Protein G beads 2 h; control normal mouse serum/IgG; Western blotting
binder,measurement,value
B1,binding,binds
